PubChem BioAssay AID686943 | Drosophila RNAi Screening Center, 2013

Purpose: 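Search across the genome for regulators of signalling from receptor tyrosine kinase to ERK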 (primary screen)
Cells: Drosophila S2R+ haemocyte-like cells expressing YFP-tagged ERK (Rolled)
Reagents: long dsRNA against Drosophila genes
Conditions: insulin stimulation versus unstimulated cells; dose and duration not given
Measurement: 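Antibody staining for doubly phosphorylated ERK divided by ERK-YFP signal, as plate z-scores, in insulin-treated and untreated cells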
Direction: replicate 1, z-score of dpERK with insulin and replicate 2, z-score of dpERK with insulin: higher = more active ERK per ERK-YFP after insulin
The screen tested about 23,000 reagents; this is an unselected part of those with a known target gene and a result. 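Extra replicates exist only for a retested subset of genes; insulin dose and duration not given; both raised and lowered dpERK matter.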 Reagents against one gene are numbered here. Further read-outs or replicates are left out here. No sequences are given here. Not stated in the record: the amount of reagent, the time to read-out.

gene	reagent no.	replicate 1, z-score of dpERK with insulin	replicate 2, z-score of dpERK with insulin
mei-W68 (meiotic W68)	1	0.8	0.82
Socs16D (Suppressor of Cytokine Signaling at 16D)	1	0.51	1.32
dimm (dimmed)	1	0.05	0.88
Obp99b (Odorant-binding protein 99b)	1	-1.74	-0.55
Gyc89Db (Guanylyl cyclase at 89Db)	1	-0.07	0.1
Ldaf1 (Lipid droplet assembly factor 1)	1	0.25	0.34
CG12057	1	0.3	0.19
Cyp6a18 (Cytochrome P450 6a18)	1	-1.27	-0.12
CG32984	1	0.53	-0.25
NaCP60E (Na channel protein 60E)	1	0.12	-0.03
NaCP60E (Na channel protein 60E)	2	0.06	-0.29
Ugt301D1 (UDP-glycosyltransferase family 301 member D1)	1	0.47	0.52
CG31183	1	-0.19	1.16
CG31183	2	-0.46	1.26
CG14174	1	0.43	0.94

2 entries from above, sorted by “replicate 2, z-score of dpERK with insulin”, ascending:
gene	reagent no.	replicate 1, z-score of dpERK with insulin	replicate 2, z-score of dpERK with insulin
Obp99b (Odorant-binding protein 99b)	1	-1.74	-0.55
Gyc89Db (Guanylyl cyclase at 89Db)	1	-0.07	0.1

More results follow.
gene	reagent no.	replicate 1, z-score of dpERK with insulin	replicate 2, z-score of dpERK with insulin
CG3548	1	0.67	0.15
stas (Stasimon)	1	-1.36	-0.86
CG30105	1	-0.3	0.34
Ugt302C1 (UDP-glycosyltransferase family 302 member C1)	1	-0.38	0.57
CG4480	1	-0.86	-0.18
CG12496	1	-0.36	-0.41
CG11134	1	0.63	1.96
CG5355	1	-0.39	0.38
